This is one part of the list.
Compound: CC1Cc2ccccc2N1C(=O)C1CCCN(C1)C(=O)CCl (mixture of isomers) [TRIM25 ligand 11 (diastereomer mixture)]
Test: probe-labelled cysteine peptide fold change vs DMSO (competition) (log2 fold change); higher = less target engagement (more negative = stronger competition)
Settings: THP-1, incubation time: 4 h
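Note: competitive chemoproteomic profiling in live THP-1 cells with an iodoacetamide desthiobiotin (IA-DTB) probe, comparing probe-labelled peptide intensities in compound-treated cells against DMSO-treated controls.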

The chains behind the UniProt entries cited, without tags or fusion partners. Where a name states a change or a piece, a line headed by the entry shows the natural chain unless it says otherwise.
UniProt Q92993, whole entry, looked up: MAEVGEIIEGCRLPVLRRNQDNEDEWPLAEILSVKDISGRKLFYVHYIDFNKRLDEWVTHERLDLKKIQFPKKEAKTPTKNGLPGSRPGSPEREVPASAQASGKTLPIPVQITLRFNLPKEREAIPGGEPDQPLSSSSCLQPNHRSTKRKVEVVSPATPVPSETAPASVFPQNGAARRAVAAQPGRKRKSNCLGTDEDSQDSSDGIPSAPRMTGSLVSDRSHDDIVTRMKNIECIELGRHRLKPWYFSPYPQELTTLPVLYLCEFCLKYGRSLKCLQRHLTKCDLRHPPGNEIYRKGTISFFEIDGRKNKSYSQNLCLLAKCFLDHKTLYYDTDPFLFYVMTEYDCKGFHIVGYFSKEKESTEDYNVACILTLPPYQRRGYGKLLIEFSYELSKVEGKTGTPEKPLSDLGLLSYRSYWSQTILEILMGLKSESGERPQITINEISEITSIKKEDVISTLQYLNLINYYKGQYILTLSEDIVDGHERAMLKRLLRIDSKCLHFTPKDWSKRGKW
UniProt Q9NS87: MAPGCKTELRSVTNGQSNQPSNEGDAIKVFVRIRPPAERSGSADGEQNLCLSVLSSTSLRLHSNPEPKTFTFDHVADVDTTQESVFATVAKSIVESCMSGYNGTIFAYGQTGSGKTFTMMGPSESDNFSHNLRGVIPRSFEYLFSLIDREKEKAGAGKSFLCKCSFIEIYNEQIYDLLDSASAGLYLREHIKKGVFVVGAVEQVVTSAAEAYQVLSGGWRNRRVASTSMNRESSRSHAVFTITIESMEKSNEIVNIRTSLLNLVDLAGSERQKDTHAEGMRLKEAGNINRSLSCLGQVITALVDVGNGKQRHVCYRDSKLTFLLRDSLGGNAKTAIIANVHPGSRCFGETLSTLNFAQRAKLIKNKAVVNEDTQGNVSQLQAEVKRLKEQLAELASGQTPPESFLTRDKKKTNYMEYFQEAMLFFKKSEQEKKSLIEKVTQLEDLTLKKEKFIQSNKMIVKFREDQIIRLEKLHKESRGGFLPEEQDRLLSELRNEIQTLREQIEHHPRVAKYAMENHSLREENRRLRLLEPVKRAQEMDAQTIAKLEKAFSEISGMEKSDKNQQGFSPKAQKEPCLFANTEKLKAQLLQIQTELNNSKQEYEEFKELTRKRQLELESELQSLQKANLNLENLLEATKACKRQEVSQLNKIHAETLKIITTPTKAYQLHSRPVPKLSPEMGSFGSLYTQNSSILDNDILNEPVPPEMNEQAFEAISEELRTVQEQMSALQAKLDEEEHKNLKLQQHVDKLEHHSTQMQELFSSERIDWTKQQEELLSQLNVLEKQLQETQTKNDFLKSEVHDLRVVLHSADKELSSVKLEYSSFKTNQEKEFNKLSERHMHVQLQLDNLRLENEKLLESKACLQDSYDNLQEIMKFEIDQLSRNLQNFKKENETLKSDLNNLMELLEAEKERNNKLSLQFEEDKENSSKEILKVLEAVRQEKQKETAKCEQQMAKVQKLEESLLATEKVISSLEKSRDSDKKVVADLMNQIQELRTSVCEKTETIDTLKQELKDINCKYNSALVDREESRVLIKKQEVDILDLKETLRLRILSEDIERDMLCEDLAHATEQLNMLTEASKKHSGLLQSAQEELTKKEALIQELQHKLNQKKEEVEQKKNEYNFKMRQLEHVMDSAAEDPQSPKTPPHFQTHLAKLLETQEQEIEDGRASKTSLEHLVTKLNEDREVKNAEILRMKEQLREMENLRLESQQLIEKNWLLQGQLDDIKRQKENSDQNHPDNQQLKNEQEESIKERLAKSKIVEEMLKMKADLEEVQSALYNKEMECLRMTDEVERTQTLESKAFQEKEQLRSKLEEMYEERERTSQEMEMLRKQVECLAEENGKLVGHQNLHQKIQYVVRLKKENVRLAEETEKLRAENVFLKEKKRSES
UniProt Q9Y4C1: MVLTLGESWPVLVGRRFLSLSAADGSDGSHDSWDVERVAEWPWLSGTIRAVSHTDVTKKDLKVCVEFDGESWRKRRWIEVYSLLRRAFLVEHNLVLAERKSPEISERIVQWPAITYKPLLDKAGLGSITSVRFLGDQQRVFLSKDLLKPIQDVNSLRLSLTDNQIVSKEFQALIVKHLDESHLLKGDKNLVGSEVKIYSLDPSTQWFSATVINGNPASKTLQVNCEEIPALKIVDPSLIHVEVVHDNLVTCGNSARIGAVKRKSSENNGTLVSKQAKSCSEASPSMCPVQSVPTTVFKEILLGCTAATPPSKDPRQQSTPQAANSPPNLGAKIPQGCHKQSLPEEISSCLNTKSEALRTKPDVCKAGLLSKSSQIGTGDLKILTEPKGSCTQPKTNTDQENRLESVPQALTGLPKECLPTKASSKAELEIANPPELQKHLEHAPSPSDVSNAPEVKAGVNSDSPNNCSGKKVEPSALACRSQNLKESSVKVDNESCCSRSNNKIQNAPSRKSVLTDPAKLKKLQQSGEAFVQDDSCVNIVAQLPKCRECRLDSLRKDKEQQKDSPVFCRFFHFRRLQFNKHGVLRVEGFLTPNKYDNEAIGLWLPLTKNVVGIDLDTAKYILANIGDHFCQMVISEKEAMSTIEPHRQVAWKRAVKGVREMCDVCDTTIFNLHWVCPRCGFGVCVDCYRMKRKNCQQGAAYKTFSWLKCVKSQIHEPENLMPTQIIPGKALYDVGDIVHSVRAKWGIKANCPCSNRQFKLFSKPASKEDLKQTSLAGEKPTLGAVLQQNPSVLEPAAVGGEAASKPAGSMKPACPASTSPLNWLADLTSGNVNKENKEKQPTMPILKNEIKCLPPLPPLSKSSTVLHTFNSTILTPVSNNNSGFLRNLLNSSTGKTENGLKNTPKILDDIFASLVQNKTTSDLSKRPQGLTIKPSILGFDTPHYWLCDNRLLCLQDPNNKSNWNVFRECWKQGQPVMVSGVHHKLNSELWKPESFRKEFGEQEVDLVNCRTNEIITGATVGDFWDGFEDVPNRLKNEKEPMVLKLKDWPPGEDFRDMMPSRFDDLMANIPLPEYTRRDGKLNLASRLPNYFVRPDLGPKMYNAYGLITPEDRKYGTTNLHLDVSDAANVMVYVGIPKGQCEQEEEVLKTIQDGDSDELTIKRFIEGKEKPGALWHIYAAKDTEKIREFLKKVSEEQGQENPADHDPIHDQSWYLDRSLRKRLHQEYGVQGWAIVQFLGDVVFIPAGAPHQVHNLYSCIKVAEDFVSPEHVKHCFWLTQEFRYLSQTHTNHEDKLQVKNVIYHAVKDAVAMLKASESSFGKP

In the case of “KAT5_Q92993_234_NIECIELGR (UniProt Q92993)”, the “probe-labelled cysteine peptide fold change” value (10 µM) is reported as -0.0563 and the “probe-labelled cysteine peptide fold change” value (50 µM) is reported as -0.0658.
“KIF15_Q9NS87_999_TSVCEK (UniProt Q9NS87)” was tested, and the “probe-labelled cysteine peptide fold change” value (10 µM) was 0.00181 and the “probe-labelled cysteine peptide fold change” value (50 µM) was -0.0605.
For “KDM3A_Q9Y4C1_814_PACPASTSPLNWLADLTSGNVNK (UniProt Q9Y4C1)”, the “probe-labelled cysteine peptide fold change” value (10 µM) was 0.0136 and the “probe-labelled cysteine peptide fold change” value (50 µM) was -0.377.

— the supplement of paper PMC12067093, “Discovery and optimisation of a covalent ligand for TRIM25 and its application to targeted protein ubiquitination” (Chemical Science, 2025)
